# Values quoted from earlier work as cited in patent publication US6306828A, “Enantiomerically-enhanced nutritional energy substrates” (Baxter International, Inc., priority 1995, dated 2001).
# At least one compound was matched to its structure with a doubt left.
# System: macrophage cultures
# Settings: high lactate concentration; Jensen et al. 1986; cited from earlier work
structure (smiles),measurement,value
CC(=O)C(=O)O [pyruvate],secretion of angiogenesis factors,did not cause the same response
